Among the data in the supplement of paper PMC10849652 are log2 fold change values, retold here.

Protein sequences, listed by entry. Tags and fused reporters are not part of them. Lines headed by an entry give the natural chain unless they say otherwise; changes in a name come on top.
UniProt Q9NRP2: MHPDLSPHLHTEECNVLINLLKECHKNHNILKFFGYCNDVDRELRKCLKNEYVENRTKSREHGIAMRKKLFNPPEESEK
UniProt Q9NX76: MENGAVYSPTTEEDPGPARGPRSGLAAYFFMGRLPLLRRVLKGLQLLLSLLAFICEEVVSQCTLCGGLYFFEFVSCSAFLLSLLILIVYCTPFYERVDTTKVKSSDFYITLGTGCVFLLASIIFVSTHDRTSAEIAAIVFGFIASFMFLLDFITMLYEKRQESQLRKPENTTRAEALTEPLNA
UniProt Q9BT09: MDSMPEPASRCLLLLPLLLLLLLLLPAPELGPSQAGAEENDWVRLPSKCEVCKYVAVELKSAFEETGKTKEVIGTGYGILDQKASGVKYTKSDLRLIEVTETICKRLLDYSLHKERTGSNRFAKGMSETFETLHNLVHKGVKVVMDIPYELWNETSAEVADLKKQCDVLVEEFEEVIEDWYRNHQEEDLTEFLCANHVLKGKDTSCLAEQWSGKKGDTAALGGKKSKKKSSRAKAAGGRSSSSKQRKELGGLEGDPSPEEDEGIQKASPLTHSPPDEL
UniProt Q99828: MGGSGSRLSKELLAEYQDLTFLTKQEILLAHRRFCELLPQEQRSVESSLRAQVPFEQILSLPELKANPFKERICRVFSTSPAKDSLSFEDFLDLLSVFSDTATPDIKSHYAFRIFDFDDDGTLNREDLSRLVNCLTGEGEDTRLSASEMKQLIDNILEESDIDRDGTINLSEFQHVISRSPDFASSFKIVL
UniProt Q6PJW8: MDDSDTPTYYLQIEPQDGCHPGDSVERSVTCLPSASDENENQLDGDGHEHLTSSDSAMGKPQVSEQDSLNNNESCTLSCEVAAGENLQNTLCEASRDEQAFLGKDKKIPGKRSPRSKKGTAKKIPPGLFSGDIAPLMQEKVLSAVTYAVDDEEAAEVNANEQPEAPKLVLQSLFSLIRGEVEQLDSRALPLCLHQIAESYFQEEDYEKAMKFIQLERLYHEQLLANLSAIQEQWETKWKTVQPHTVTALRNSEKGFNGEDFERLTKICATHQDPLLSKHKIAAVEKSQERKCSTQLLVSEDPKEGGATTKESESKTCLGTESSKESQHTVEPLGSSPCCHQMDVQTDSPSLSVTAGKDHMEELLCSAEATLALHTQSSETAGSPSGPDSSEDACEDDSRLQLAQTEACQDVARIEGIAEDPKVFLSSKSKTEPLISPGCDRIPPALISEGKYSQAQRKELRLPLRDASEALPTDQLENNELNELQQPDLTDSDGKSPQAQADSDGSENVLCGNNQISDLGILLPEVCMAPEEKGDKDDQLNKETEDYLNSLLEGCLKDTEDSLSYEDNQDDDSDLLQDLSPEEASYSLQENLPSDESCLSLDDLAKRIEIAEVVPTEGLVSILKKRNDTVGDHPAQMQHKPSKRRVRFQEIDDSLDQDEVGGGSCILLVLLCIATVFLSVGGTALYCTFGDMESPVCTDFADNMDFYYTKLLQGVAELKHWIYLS
UniProt Q9H6Q4: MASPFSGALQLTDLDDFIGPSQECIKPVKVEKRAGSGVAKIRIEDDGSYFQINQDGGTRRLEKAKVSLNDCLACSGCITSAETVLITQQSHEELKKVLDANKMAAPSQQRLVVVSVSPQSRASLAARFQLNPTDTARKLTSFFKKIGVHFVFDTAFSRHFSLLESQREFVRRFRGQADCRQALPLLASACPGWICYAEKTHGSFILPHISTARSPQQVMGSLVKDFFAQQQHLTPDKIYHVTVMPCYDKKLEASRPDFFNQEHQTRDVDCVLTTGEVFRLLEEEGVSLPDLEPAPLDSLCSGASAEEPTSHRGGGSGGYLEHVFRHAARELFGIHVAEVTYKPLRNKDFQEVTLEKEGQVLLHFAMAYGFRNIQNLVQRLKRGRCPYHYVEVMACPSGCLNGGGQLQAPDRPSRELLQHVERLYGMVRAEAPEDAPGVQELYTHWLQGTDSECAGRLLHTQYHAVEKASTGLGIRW
UniProt Q9GZY4: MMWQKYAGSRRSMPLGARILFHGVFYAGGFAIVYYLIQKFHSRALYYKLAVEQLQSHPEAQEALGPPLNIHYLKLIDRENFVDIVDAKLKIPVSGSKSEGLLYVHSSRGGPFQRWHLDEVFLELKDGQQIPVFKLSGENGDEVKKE
UniProt Q9Y2B0: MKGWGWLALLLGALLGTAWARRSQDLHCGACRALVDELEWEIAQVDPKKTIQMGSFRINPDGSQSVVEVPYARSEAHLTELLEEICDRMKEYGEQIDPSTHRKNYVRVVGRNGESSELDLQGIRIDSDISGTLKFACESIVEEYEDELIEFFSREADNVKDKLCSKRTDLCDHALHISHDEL
UniProt Q9NZ45: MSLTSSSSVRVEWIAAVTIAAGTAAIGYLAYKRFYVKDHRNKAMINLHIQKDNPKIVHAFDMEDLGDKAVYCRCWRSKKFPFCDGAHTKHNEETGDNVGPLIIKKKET
UniProt Q9H9A5, whole entry, looked up: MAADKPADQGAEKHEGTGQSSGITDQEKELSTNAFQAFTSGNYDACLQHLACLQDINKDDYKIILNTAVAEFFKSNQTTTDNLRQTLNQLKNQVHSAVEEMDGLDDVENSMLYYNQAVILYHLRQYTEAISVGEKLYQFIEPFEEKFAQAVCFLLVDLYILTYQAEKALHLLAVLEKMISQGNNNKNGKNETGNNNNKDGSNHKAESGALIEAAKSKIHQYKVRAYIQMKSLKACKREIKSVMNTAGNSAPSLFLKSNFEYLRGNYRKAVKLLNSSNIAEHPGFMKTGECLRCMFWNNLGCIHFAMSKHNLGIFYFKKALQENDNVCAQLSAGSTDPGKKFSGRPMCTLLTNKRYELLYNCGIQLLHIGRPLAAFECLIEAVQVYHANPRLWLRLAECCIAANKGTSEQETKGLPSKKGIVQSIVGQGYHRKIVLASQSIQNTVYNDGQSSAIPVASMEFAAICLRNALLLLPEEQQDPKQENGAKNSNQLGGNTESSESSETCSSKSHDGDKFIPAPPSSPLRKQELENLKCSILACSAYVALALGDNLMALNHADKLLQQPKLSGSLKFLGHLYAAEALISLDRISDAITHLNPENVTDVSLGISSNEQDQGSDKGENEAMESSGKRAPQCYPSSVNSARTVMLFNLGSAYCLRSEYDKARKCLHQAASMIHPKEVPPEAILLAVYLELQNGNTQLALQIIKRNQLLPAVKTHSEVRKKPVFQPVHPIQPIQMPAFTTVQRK
UniProt O75175, whole entry, looked up: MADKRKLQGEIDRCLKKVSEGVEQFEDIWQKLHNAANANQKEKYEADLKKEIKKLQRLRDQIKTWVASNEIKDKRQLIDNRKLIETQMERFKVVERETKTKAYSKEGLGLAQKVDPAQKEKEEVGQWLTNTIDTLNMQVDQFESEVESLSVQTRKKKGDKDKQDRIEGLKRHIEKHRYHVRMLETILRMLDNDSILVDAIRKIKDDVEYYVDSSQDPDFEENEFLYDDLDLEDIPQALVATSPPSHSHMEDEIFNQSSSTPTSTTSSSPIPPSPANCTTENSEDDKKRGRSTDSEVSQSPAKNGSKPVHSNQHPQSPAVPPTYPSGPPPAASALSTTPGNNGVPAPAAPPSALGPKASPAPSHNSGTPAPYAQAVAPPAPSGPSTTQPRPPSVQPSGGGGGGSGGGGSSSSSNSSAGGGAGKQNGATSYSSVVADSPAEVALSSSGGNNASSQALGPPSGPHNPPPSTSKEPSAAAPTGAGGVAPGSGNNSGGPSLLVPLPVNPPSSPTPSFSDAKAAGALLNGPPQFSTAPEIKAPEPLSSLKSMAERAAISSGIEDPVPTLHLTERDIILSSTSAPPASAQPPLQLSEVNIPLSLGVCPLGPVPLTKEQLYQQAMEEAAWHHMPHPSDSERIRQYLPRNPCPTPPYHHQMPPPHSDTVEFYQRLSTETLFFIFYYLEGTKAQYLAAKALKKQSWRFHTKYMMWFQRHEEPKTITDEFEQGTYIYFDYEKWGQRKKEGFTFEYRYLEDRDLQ
UniProt Q96BR5: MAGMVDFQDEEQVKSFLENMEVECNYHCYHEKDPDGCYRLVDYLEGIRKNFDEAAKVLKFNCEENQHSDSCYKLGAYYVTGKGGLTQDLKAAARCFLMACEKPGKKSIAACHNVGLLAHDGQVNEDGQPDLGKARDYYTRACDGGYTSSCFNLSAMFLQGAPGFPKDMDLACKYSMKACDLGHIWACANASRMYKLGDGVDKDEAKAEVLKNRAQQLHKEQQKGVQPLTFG
UniProt Q9C0A0: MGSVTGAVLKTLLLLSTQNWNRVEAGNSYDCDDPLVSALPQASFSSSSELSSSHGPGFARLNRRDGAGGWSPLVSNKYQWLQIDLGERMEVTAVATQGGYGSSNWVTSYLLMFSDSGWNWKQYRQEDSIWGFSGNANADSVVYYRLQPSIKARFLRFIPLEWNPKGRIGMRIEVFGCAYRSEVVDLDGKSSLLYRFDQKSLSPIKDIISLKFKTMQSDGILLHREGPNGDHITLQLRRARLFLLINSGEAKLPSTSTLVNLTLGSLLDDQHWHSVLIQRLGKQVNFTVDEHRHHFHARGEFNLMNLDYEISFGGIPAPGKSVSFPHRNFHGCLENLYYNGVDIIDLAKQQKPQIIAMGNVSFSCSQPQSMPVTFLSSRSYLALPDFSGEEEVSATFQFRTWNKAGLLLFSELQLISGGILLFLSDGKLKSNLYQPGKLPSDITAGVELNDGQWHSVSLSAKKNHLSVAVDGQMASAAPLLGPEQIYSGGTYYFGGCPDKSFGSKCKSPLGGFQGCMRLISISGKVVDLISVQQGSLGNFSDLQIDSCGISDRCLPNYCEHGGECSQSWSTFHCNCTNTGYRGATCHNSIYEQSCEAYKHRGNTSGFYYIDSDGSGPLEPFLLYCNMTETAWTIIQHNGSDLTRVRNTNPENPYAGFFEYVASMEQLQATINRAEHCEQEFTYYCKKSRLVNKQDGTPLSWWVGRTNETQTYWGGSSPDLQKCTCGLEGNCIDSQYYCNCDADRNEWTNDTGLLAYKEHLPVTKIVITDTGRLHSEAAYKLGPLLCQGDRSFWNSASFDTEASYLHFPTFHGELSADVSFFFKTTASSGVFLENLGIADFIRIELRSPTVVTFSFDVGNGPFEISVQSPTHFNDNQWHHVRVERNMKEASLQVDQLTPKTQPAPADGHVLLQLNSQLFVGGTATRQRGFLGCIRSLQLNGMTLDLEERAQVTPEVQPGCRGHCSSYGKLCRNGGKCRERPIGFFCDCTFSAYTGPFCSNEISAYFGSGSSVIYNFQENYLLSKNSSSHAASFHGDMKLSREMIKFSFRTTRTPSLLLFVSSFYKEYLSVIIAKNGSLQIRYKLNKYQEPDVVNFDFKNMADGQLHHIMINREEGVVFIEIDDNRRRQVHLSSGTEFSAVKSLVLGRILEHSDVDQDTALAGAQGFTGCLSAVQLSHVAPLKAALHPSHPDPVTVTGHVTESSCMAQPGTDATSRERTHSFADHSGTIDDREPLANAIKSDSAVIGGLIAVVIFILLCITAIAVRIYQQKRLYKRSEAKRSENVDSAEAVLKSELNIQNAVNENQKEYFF
UniProt Q7Z7K0: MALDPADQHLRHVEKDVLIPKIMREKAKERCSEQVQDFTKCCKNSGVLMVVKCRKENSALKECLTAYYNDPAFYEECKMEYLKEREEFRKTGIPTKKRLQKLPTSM
UniProt Q8WUX9: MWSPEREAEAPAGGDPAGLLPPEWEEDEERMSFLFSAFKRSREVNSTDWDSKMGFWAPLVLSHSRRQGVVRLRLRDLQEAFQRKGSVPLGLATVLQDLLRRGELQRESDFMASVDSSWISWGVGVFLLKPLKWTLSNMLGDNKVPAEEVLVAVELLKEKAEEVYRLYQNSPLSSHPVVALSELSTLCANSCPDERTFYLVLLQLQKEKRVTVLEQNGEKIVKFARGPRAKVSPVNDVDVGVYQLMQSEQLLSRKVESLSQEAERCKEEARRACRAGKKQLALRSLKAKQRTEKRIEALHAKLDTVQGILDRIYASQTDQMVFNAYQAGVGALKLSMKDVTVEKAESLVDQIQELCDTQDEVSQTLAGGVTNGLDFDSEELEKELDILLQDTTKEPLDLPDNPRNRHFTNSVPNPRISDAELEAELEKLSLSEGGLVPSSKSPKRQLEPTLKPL
UniProt P0C7P0: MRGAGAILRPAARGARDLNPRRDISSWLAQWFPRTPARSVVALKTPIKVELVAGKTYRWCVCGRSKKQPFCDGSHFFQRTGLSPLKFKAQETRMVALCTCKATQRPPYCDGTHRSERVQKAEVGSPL
UniProt Q8WUH1: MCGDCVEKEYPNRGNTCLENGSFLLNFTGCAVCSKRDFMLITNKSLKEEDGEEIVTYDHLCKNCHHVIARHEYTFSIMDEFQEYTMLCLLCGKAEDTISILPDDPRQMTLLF
UniProt Q92600, whole entry, looked up: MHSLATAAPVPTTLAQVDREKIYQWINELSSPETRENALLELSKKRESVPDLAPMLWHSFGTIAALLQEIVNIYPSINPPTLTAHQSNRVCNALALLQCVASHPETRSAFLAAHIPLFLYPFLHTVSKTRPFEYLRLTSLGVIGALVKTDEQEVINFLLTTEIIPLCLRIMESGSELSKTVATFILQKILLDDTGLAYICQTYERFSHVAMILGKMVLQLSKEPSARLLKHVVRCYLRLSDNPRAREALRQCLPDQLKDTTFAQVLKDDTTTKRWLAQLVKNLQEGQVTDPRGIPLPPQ

This is one part of the list.

Compound in the experiment: C#Cc1cccc(Nc2ncnc3cc(OCCOC)c(OCCOC)cc23)c1 [erlotinib]
Description: log2 fold change, soluble protein after heating vs DMSO (PISA); higher = thermal stabilisation; K562 cells, 10 uM, 30 min; active = over 0.2 and 3.5 SD of the protein, either way, in both replicates (recomputed). The essentials: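 K562 cells at 2×10^6 cells/mL were treated for 30 min with 10 μM compound, and aliquots were heated for 3 min over 48°C-58°C before pooling. Extraction used PBS with 0.5% NP-40 at 4°C, and soluble protein was the supernatant after 21,000xg for 90 min, measured by TMTpro 16plex LC-MS/MS with channel sums equalised. Thermal stability values, relative to control samples and from duplicates, are log2 fold changes.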
In the case of CMC2 (UniProt Q9NRP2), the log2 fold change is inactive: -0.089. The figure for CMTM6 (UniProt Q9NX76) is inactive: -0.028.

As to CNPY3 (UniProt Q9BT09), the log2 fold change is inactive: -0.011. The figure for CIB1 isoform 2 (UniProt Q99828) is inactive: 0. Under CNST (UniProt Q6PJW8) stands inactive: 0.029. CIAO3 (UniProt Q9H6Q4): the log2 fold change is inactive: 0.039.

CNOT11 (UniProt Q9UKZ1): the log2 fold change was inactive: -0.116.

For the target COA1 (UniProt Q9GZY4), the log2 fold change is inactive: 0.031.

For CNPY2 (UniProt Q9Y2B0), the log2 fold change was inactive: 0.016. Under CISD1 (UniProt Q9NZ45) stands inactive: -0.002. The figure for CNOT6L (UniProt Q96LI5) is inactive: 0.669. Consider CNOT10 isoform 6 (UniProt Q9H9A5), for which the log2 fold change was inactive: -0.052. For CNOT3 (UniProt O75175), the log2 fold change was inactive: -0.006. For COA7 (UniProt Q96BR5), the log2 fold change is inactive: -0.069.

Regarding CNTNAP4 (UniProt Q9C0A0), the log2 fold change is inactive: -0.1. The figure for CMC1 (UniProt Q7Z7K0) is inactive: 0.096; for CHMP7 (UniProt Q8WUX9) it is inactive: 0.094; for CISD3 (UniProt P0C7P0) it is inactive: 0.014. Turning to CHURC1 isoform 2 (UniProt Q8WUH1), the log2 fold change was inactive: 0.004. For the target CNOT9 isoform 2 (UniProt Q92600), the log2 fold change was inactive: -0.008.

In the case of CKMT2 (UniProt P17540), the log2 fold change is inactive: 0.012. As for COL1A2 (UniProt P08123), the log2 fold change is inactive: 0.06.

With CMAS (UniProt Q8NFW8), the log2 fold change is inactive: -0.07.
